PMC7404264

Biological target: N-terminal FLAG epitope-tagged IpLITR 1.1b (1.1b^(WT CYT)) (channel catfish (Ictalurus punctatus))
Test: co-IP; AD293 cells co-expressing HA-2.6b^(ITAM CYT) and a FLAG-1.1b^CYT construct; receptors co-crosslinked with magnetic beads co-opsonized with α-HA mAb (0.32 μg/mL) and α-FLAG mAb (2.5 μg/mL), 8 min at 37 °C; lysis in 50 mM Tris-HCl, 150 mM NaCl, 1% Triton X-100, pH 8.0 on ice; beads isolated magnetically, washed, bound proteins immunoblotted

binding: no binding
B1: SH2 domain-containing inositol 5′-phosphatase 2 (SHIP-2) (enzyme, UniProt O15357 1-1258)
chain: MASACGAPGPGGALGSQAPSWYHRDLSRAAAEELLARAGRDGSFLVRDSESVAGAFALCVLYQKHVHTYRILPDGEDFLAVQTSQGVPVRRFQTLGELIGLYAQPNQGLVCALLLPVEGEREPDPPDDRDASDGEDEKPPLPPRSGSTSISAPTGPSSPLPAPETPTAPAAESAPNGLSTVSHDYLKGSYGLDLEAVRGGASHLPHLTRTLATSCRRLHSEVDKVLSGLEILSKVFDQQSSPMVTRLLQQQNLPQTGEQELESLVLKLSVLKDFLSGIQKKALKALQDMSSTAPPAPQPSTRKAKTIPVQAFEVKLDVTLGDLTKIGKSQKFTLSVDVEGGRLVLLRRQRDSQEDWTTFTHDRIRQLIKSQRVQNKLGVVFEKEKDRTQRKDFIFVSARKREAFCQLLQLMKNKHSKQDEPDMISVFIGTWNMGSVPPPKNVTSWFTSKGLGKTLDEVTVTIPHDIYVFGTQENSVGDREWLDLLRGGLKELTDLDYRPIAMQSLWNIKVAVLVKPEHENRISHVSTSSVKTGIANTLGNKGAVGVSFMFNGTSFGFVNCHLTSGNEKTARRNQNYLDILRLLSLGDRQLNAFDISLRFTHLFWFGDLNYRLDMDIQEILNYISRKEFEPLLRVDQLNLEREKHKVFLRFSEEEISFPPTYRYERGSRDTYAWHKQKPTGVRTNVPSWCDRILWKSYPETHIICNSYGCTDDIVTSDHSPVFGTFEVGVTSQFISKKGLSKTSDQAYIEFESIEAIVKTASRTKFFIEFYSTCLEEYKKSFENDAQSSDNINFLKVQWSSRQLPTLKPILADIEYLQDQHLLLTVKSMDGYESYGECVVALKSMIGSTAQQFLTFLSHRGEETGNIRGSMKVRVPTERLGTRERLYEWISIDKDEAGAKSKAPSVSRGSQEPRSGSRKPAFTEASCPLSRLFEEPEKPPPTGRPPAPPRAAPREEPLTPRLKPEGAPEPEGVAAPPPKNSFNNPAYYVLEGVPHQLLPPEPPSPARAPVPSATKNKVAITVPAPQLGHHRHPRVGEGSSSDEESGGTLPPPDFPPPPLPDSAIFLPPSLDPLPGPVVRGRGGAEARGPPPPKAHPRPPLPPGPSPASTFLGEVASGDDRSCSVLQMAKTLSEVDYAPAGPARSALLPGPLELQPPRGLPSDYGRPLSFPPPRIRESIQEDLAEEAPCLQGGRASGLGEAGMSAWLRAIGLERYEEGLVHNGWDDLEFLSDITEEDLEEAGVQDPAHKRLLLDTLQLSK

Results are given in words; binding and its absence hold for the method and conditions named. In cells and extracts the contact can be indirect.
